Data as given in US20020012942A1, “POLYPEPTIDES WITH A4 INTEGRIN SUBUNIT RELATED ACTIVITY” (Regents of the University of Minnesota, priority 1998, published 2002).
At least one peptide structure holds a part that was inferred or is arguable (an end, a ring closure or a residue). Where no end group is shown, it is not given here.

Chains of the proteins cited; added tags and fusions are not shown. Residues count along the entry.
UniProt P16070, 21-742: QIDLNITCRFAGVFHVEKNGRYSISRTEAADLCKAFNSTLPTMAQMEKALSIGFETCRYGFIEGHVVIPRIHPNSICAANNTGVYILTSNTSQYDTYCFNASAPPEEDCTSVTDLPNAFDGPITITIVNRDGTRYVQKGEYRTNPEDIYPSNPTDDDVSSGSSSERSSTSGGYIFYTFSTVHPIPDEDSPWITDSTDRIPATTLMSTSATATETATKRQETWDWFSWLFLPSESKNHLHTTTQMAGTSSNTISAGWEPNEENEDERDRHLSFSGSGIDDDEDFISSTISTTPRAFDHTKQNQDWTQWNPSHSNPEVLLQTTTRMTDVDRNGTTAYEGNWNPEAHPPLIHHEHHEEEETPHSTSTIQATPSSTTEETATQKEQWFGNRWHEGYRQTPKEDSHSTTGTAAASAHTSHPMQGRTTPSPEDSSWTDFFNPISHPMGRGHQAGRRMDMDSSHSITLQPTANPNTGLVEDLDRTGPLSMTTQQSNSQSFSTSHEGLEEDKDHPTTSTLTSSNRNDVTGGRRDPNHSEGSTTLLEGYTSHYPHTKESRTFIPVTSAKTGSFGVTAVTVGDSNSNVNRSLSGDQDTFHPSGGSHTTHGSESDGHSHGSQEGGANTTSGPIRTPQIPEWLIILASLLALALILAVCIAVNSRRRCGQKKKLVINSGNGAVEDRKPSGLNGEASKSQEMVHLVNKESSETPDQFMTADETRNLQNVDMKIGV

How the values were obtained:
[1] = test system: A375SM human melanoma cells; assay: Cell adhesion assay: A375SM melanoma cell adhesion to substrata coated with CS1/OVA; format: cell-based; conditions: cells preincubated with 1 mg/ml polypeptide 15 min, adhesion 30 min
Method: Cell adhesion assays were performed as previously described in Iida et al., J. Cell Biol., 118, 431-444 (1992) with minor modifications. Ligands were diluted in PBS, and 50 μl aliquots were dispersed in triplicate into Immulon-1 polystyrene microtiter wells. The wells were incubated at 37° C. overnight, and nonspecific binding sites on plastic were then blocked by treating the wells with 200 ul of PBS/BSA.
Subconfluent A375SM human melanoma cells which had been radiolabeled overnight with ^3H-thymidine (3HTdR, specific activity 6.7 Ci/mmol; NEN Research Products, Boston, Mass.), were harvested by rinsing with 1 mM EDTA, washed two times with EMEM/BSA (EMEM containing 2 mg/ml BSA and 0.15 mM Hepes, pH 7.2) and adjusted to a concentration of […] in the same medium. Aliquots of 100 ul of the cell suspension were dispensed into the wells and the cells were incubated at 37° C. for 30 min. The assays were terminated by aspirating loosely bound and unbound cells from the wells, washing the wells three times, and solubilizing the bound cells in 0.5 N NaOH containing 1% SDS. Bound radioactivity, determined in a Beckman Model 3801 Liquid Scintillation Counter, was used to calculate the percentage of cells which remained adherent to each substratum. Unless otherwise indicated, the data represent the mean of triplicate determinations. […]

MPG/NG2 proteoglycan = assay: Affinity chromatography on immobilized SG1 polypeptide; format: binding, human
CD44 proteoglycan = target: T1, CD44 proteoglycan (Homo sapiens, UniProt P16070); assay: Affinity chromatography on immobilized SG1 polypeptide, immunoprecipitation with anti-CD44; format: binding
T1 construct: Detergent lysates from ^125I-labeled melanoma cells were precleared and then applied on the polypeptide column; endogenous in cells; host or cells: human melanoma cells

Row | Sequence | Inhibition of cell adhesion to CS1/OVA by polypeptide (FIG. 3) [1] | Proteoglycan immunoprecipitated from the SG1 column eluates (MPG/NG2 proteoglycan; pooled peak fractions, mAb 9.2.27) | Retention of chondroitinase ABC-treated MPG/NG2 on the SG1 column (MPG/NG2 proteoglycan; purified MPG/NG2 treated with chondroitinase ABC, not shown) | CD44 proteoglycan in pooled fractions eluted from the SG1 column (CD44 proteoglycan)
1 | DELPQLVTLPHPNLHGPEILDVPST [CS1, reference compound] | significantly inhibited cell adhesion |  |  | 
2 | LQQKKEKDIMKKTI [SG1, LQQKKEKDIMKKTI] | significantly inhibited cell adhesion | chondroitin sulfate-modified MPG/NG2 was mainly precipitated | no longer retained | not detected
